Data taken from ChEMBL document CHEMBL3988442, “University of Dundee, Small-Polar-MMV Screening Library” (2021).

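Growth of Mycobacterium tuberculosis over 3 days (7H9 medium with glucose and tyloxapol); the read-out is not stated. Tested at 50 µM. The record gives no direction; compounds that gave an IC50 in retests scored well above the rest, so higher reads as more growth inhibition. Of about 69,000 compounds tested this way, about 760 (1.1%) reached 50% or more in at least one test.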

Each number is a percent effect as filed. How 0% and 100% were set is not recorded. Most values in the screen are low, and negative values occur. The compounds are a random part of those screened. Two or more numbers in one place are separate tests of the same structure; such repeats can differ widely.

compound: COc1ccccc1CN1CCN(CCN2CCOC2=O)CC1
Percent Effect: -37.99

compound: O=C1N(c2cccc(F)c2)Cc2nc(=O)[nH]n21
Percent Effect: -17.9

compound: O=C(O)C(F)(F)F.[H][C@@]12COC[C@]1([H])[C@@H](OC)CN2Cc1ccc(CC)o1
Percent Effect: 12.8

compound: Cc1ocnc1C(=O)Nc1ccc(-c2nnc(N(C)C)o2)cc1
Percent Effect: 6.322

compound: c1ccc(C2CCCN2C2CCSCC2)nc1 (stereo unspecified)
Percent Effect: -11.13

compound: Cl.O=C(CN1CCC[C@H]1C(=O)O)NCCOc1cccc(Cl)c1
Percent Effect: -6.292

compound: CCn1nc(CC(C)C)cc1C(=O)NCCS(=O)(=O)N(C)C
Percent Effect: -5.944

compound: Cc1cnccc1N1CCN(C(=O)CCCN2CCCCC2)CC1
Percent Effect: 15.86

compound: CCOC(=O)C1CCCN(Cc2c[nH]nc2-c2cc3ccccc3o2)C1 (stereo unspecified)
Percent Effect: 40.81

compound: CC(NCc1ccc(Cl)o1)c1nnc2n1CCCC2 (stereo unspecified)
Percent Effect: -16.09

compound: COc1ccc(OCCCN(C)C(=O)C2CCCN2C(N)=O)cc1 (stereo unspecified)
Percent Effect: -10.82

compound: CCc1cnc(N)nc1NCCCn1nc(C)nc1C
Percent Effect: -11.44

compound: CN(CCn1cccn1)c1cc(C(F)(F)F)nc(-c2cccnc2)n1
Percent Effect: -1.124

compound: [H][C@@]12CN(C(=O)c3ccncc3)C[C@]1([H])OCCN2CCN1CCCC1
Percent Effect: 31.28

compound: CCN(C)C[C@@H]1CN(Cc2cnc3c(S(C)(=O)=O)cnn3c2)C[C@@H]1CO
Percent Effect: -4.468 & 2.211

compound: CCc1cnc(NCC(c2ccncc2)N2CCOCC2)nc1 (stereo unspecified)
Percent Effect: -32.63

compound: CCC(CN1CCCC1)n1cncc1-c1cnn(Cc2ccccc2)c1.Cl (stereo unspecified)
Percent Effect: -14.93

compound: CC(C)Oc1ccc(CN2CCCC(N3CCCC3)C2)cc1CO (stereo unspecified)
Percent Effect: 50.91 & 29.14

compound: CCNC(=O)Cn1ncc(N(C)CCc2ccccc2)cc1=O
Percent Effect: -33.22

compound: CCS(=O)(=O)CCNCc1cc(O)c2cc(C)cc(C)c2n1
Percent Effect: -22.3

compound: COCCCC1(CO)CCCN(CCOC)C1 (stereo unspecified)
Percent Effect: 6.368

compound: Cc1ccc(S(=O)(=O)N2CCn3nc(C)nc3C2)c(Cl)c1
Percent Effect: 9.869 & -5.643

compound: COc1cccc(C2CC(=O)Nc3nc(N4CCOCC4)sc32)c1OC (stereo unspecified)
Percent Effect: 25.21 & 40.28

compound: Cn1nc(C#N)c2c1CN(C(=O)c1ccco1)CCC2
Percent Effect: -37.62 & -2.747

compound: O=C(c1cccnc1)N1CCC2(CC1)CCN(Cc1ccccn1)C2=O
Percent Effect: -5.28

compound: [H][C@]12CCN(C(=O)NC(C)C)CC[C@@]1([H])S(=O)(=O)N(Cc1ccccc1)C2
Percent Effect: -38.29

compound: O=C(Nc1ccccn1)C1(n2cnnn2)CCCCC1
Percent Effect: 11.11

compound: COCCOc1cc(C)ccc1NC(=O)N(C)Cc1cnn(C)c1
Percent Effect: -0.2726

compound: CC(CNC(=O)N1CCN(c2cnccn2)CC1)Cc1cccs1 (stereo unspecified)
Percent Effect: 30.52

For reference, 3 entries once more:

compound,Percent Effect
Cc1ocnc1C(=O)Nc1ccc(-c2nnc(N(C)C)o2)cc1,6.322
CCN(C)C[C@@H]1CN(Cc2cnc3c(S(C)(=O)=O)cnn3c2)C[C@@H]1CO,-4.468 & 2.211
O=C1N(c2cccc(F)c2)Cc2nc(=O)[nH]n21,-17.9